Reference: patent publication US20250122301A1 (IBIO, published 2025)
Substitutions are numbered along the chain they refer to. No constants are given. Whether binding was seen depends on the method and setting. Some results given as binding are weak or reduced against the parent protein; the word gives no strength.

Protein sequences, listed by entry. Tags and fused reporters are not part of them. Lines headed by an entry give the natural chain unless they say otherwise; changes in a name come on top. Chains listed by the source or under a name are the forms on record and can include a tag or linker. Residues count along the entry.
UniProt P01589, residues 22-213: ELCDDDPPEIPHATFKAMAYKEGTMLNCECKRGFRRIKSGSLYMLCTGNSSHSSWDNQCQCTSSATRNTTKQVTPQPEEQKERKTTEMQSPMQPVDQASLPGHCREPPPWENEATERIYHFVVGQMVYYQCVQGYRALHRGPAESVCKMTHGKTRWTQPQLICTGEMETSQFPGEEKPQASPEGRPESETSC
recombinant cynomolgus monkey (cyno) CD25 (H6WS54, form named): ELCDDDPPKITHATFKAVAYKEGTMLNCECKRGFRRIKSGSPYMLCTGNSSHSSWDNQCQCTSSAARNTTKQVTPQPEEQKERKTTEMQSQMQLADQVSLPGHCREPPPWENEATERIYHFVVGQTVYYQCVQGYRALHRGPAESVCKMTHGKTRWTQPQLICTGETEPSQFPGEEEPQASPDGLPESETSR

B1: AH04524 (human IgG1 reformatted) (antibody, V domains shown)
VH: QIQLQQSGAELVRPGTSVKMSCKAAGYTFTNYWIGWVKQRPGHGLEWIGDIHPGGDYSNYNEKFKGKATLTADTSSSTAYMSLSSLTSEDSAIYYCTSRNFAYWGQGTLVTVSA
VL: DIVMTQSQKFMSTSVGDRVSVTCKASQNVGTNVAWYQQKPGQSPKALIYSASYRYSGVPDRFTGSGSGTDFTLTISNVQSEDLAEYFCQQYNSYPYTFGGGTKLEIK
notes: also called AH4524
B2: AH04501 (human IgG1 reformatted) (antibody, V domains shown)
VH: B1 VH with I2V, S7P, S82N
VL: B1 VL with I2V, S7T, M11T
notes: also called AH4501
B3: AH04502 (human IgG1 reformatted) (antibody, V domains shown)
VH: B1 VH with D56G, S58T, Y80D, S82Q
VL: B1 VL with T31I
notes: also called AH4502
B4: AH04503 (human IgG1 reformatted) (antibody, V domains shown)
VH: B1 VH with I2V, S7P, T30S, D56G, S58I, K65T, S82Q, T97V, Y103N
VL: B1 VL with V3Q, Y96W
notes: also called AH4503
B5: AH04505 (human IgG1 reformatted) (antibody, V domains shown)
VH: B1 VH with Q1D, I2V, D56G, S58T, S82Q, D90G
VL: B1 VL with I2T, V3T, M4V, I106M
notes: also called AH4505
B6: AH04507 (human IgG1 reformatted) (antibody, V domains shown)
VH: B1 VH with I2V, D56G, S58I, N59D, K65T, S82Q, T97V, Y103K
VL: B1 VL with I2T, V3T, M4V
B7: AH04511 (human IgG1 reformatted) (antibody, V domains shown)
VH: B1 VH with T30S, D56G, S58I, K65T, S82Q, T97V, Y103N
VL: B1 VL with T5S
notes: also called AH4511
B8: AH04518 (human IgG1 reformatted) (antibody, V domains shown)
VH: B1 VH with I2V, G44D, S82N
VL: B1 VL with V3L, M4L
notes: also called AH4518
B9: AH04522 (human IgG1 reformatted) (antibody, V domains shown)
VH: B1 VH with D56G, S58T, S82Q
VL: B1 VL with I2T, V3T, M4V, S26G
B10: AH04523 (human IgG1 reformatted) (antibody, V domains shown)
VH: B1 VH with D56S, S58T, K63N, L70F, A79T, S82Q, Y95F, Y103K, L109P, A114S
VL: B1 VL with M4L
notes: also called AH4523
B11: AH04525 (human IgG1 reformatted) (antibody, V domains shown)
VH: B1 VH with I2V, V37I, S58T, S75F, S82Q, S98G, A114S
VL: B1 VL with I2N, M4L, I106M
notes: also called AH4525
B12: AH04509 (human IgG1 reformatted) (antibody, V domains shown)
VH: B1 VH with I51F, H52Y, S58I, S82Q, L109P, A114S
VL: B1 VL with I2T, V3T, M4V, K9R, A46P, S76N, S93N, Y94S, Y96L
notes: also called AH4509

Columns and labels:
[1] = biological target: full-length CD25 (human CD25, recombinant protein used on biosensors) (human) (UniProt P01589); assay: BLI (Octet RED384): antibody on AR2G sensor, 300 nM full-length CD25, 1:1 fit
[2] = biological target: recombinant cynomolgus monkey (cyno) CD25 (cynomolgus monkey) (UniProt H6WS54); assay: ELISA on coated recombinant cyno CD25, OD450

Binder | binding [1] | binding [2]
B1 | binds | –
B2 | binds | binds
B3 | binds | binds
B4 | binds | binds
B5 | binds | binds
B6 | binds | binds
B7 | binds | binds
B8 | binds | binds
B9 | binds | binds
B10 | binds | binds
B11 | binds | binds
B12 | binds | binds
